Results published in article PMC10817852, “Vascular injury activates the ELK1/SND1/SRF pathway to promote vascular smooth muscle cell proliferative phenotype and neointimal hyperplasia”.
These are yes or no findings as the source states them, for the method shown. For part of these data: Binding seen in cells or lysates may run through a third protein. Some results given as binding are weak or reduced against the parent protein; the word gives no strength. Where a sequence is shown, tags or fusion partners need not be part of it.

The chains behind the UniProt entries cited, without tags or fusion partners.
UniProt Q8VIM5: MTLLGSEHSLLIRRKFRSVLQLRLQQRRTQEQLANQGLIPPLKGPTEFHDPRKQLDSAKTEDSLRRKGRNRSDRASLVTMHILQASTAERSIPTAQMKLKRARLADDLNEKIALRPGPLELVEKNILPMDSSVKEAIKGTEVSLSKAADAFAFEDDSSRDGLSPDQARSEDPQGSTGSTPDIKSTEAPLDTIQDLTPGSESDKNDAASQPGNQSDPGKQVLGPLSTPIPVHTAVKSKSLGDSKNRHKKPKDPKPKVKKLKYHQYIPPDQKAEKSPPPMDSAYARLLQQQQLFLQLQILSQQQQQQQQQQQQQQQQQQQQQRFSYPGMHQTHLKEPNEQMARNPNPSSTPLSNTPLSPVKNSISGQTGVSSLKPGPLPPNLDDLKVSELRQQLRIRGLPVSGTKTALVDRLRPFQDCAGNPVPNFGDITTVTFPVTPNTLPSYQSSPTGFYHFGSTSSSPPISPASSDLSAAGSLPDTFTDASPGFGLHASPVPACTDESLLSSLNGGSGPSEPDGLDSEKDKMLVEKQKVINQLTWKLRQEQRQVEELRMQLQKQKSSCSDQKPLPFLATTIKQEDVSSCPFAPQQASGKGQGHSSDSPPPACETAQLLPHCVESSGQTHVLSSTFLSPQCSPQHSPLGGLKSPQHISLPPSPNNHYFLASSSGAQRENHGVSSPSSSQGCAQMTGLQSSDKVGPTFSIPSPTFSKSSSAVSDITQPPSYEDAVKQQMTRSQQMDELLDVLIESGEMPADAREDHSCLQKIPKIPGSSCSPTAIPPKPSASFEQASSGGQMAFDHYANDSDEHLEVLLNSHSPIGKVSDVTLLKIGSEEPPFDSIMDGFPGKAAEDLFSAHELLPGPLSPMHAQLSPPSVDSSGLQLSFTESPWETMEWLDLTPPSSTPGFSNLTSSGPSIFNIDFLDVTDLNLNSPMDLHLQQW

T1: GST-fusion protein containing the SRF-1 domain (containing the MADS-box) of SRF (UniProt Q9JM73)
T1 sequence: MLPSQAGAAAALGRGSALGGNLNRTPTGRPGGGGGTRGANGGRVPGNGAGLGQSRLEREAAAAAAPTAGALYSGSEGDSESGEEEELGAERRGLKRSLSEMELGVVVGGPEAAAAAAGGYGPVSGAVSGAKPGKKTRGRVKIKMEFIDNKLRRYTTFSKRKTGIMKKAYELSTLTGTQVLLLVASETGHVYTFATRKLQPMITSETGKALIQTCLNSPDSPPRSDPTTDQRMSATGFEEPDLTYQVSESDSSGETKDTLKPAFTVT

T2: GST-fusion protein containing full-length SRF (GST-SRF) (UniProt Q9JM73)
T2 sequence: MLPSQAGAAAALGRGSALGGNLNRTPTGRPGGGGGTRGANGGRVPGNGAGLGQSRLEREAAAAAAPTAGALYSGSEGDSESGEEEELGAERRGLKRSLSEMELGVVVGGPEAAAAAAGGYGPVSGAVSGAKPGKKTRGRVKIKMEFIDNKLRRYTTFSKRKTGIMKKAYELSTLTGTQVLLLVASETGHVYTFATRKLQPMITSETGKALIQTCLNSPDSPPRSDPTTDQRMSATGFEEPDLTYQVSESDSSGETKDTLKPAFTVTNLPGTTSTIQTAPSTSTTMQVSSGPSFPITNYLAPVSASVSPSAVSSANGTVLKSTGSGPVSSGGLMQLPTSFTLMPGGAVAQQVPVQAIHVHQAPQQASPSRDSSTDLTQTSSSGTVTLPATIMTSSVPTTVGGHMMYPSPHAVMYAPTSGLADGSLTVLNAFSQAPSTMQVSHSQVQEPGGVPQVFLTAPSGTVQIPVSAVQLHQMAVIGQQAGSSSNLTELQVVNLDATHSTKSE


Experiments:
[1] = target: T1, GST-fusion protein containing the SRF-1 domain (containing the MADS-box) of SRF; assay: pull-down; GST pull-down of MYOCD with the MADS domain of SRF (Supplementary Fig. S6A)
[2] = target: T1, GST-fusion protein containing the SRF-1 domain (containing the MADS-box) of SRF; assay: pull-down; GST-fusion proteins of SRF (full length, SRF-1, SRF-2) with His-SND1; both purified
[3] = target: T2, GST-fusion protein containing full-length SRF (GST-SRF); assay: as above

Row | Molecule | binding [1] | binding [2] | binding [3]
1 | Myocardin (MYOCD) used in the GST pull-down (from UniProt Q8VIM5 1-935) | binds |  | 
2 | His-SND1 (protein, UniProt Q78PY7 1-910) MASSAQSSGSSGGPAVPTVQRGIVKMVLSGCAIIVRGQPRGGPPPERQINLSNIRAGNLARRAAATQPDGKDTPDEPWAFPAREFLRKKLIGKEVCFTIENKTPQGREYGMIYLGKDTNGENIAESLVAEGLATRREGMRANNPEQNRLSECEEQAKASKKGMWSEGNGSHTIRDLKYTIENPRHFVDSHHQKPVNAIIEHVRDGSVVRALLLPGHHLVTVMLSGIKCPTFRRETDGSETPEPFAAEAKFFTESRLLQRDVQIILESCHNQNLLGTILHPNGNITELLLKEGFARCVDWSIAVYTRGAEKLRAAERFAKERRLRIWRDYVPPTANLDQKDKQFVAKVMQVLNADAIVVKLNSGDYKTIHLSSIRPPRLEGDNIQDKNKKLRPLYDIPYMFEAREFLRKKLIGKKVNVTVDYIRPASPATETVPAFSERTCATVTIGGINIAEALVSKGLATVIRYRQDDDQRSSHYDELLAAEARAIKNGKGLHSKKEVPIHRVADISGDTQKAKQFLPFLQRAGRSEAVVEYVFSGSRLKLYLPKETCLITFLLAGIECPRGARNLPGLVQEGEPFSEEATLFTKELVLQREVEVEVESMDKAGNFIGWLHMDGANLSVLLVEQALSKVHFTAERSAYYKPLLSAEEAAKQRKEKVWAHYEERPVEEVMPVLEEKERSASYKPVFVTEITDDLHFYVQDVETGTQLEKLMENMRNDISSHPPVEGSYAPRRGEFCIAKFVDGEWYRARVEKVESPAKVHVFYIDYGNREILPSTRLGTLPPAFSTRVLPAQATEYAFAFIQVPQDEDARTDAVDSVVRDIQNTQCLLNVEHLSASCPHVTLQFADSKGDVGLGLVKEGLVMVEVRKEKQFQKVITEYLNAQESAKSARLNLWRYGDFRADDADEFGYSR |  | binds | binds
